Reference: article doi:10.1101/2025.03.06.641775
Results are given in words; binding and its absence hold for the method and conditions named. Sequences can lack the tags named with a protein.

Target: T1, MtbPdtaS-GFP (M. tuberculosis) (UniProt P9WGL5)
T1 sequence: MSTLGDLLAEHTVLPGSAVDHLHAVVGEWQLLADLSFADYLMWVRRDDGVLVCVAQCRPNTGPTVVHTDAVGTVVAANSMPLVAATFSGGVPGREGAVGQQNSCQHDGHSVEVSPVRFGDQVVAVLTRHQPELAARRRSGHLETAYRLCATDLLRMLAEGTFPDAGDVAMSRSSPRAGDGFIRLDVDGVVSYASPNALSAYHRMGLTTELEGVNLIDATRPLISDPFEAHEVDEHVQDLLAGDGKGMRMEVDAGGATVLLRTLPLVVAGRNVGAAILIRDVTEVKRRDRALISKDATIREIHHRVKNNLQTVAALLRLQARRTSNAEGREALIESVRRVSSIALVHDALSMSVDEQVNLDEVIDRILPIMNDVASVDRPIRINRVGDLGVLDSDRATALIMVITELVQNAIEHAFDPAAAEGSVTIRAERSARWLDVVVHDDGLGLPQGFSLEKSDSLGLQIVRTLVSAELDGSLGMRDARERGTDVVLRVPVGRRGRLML
Test: MST

M. tuberculosis MutT1 (MtbMutT1), wild type (from UniProt P9WIY3 1-317) (enzyme)
binding: no binding (tested: 0.45 nM to 15 μM)
